# Values from PubChem BioAssay AID504764 (Drosophila RNAi Screening Center, 2011).
# Screen: 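Knock-downs that raise or lower a Notch target reporter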 (primary screen)
# System: Drosophila Kc167 cells
# Reagents: long dsRNA against Drosophila genes
# Time to read-out: about 5 days (4 days dsRNA, then 24 h after transfection)
# Treatment: transfection of constitutively active membrane-tethered Notch lacking the extracellular domain, read 24 h later
# Measured: 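Firefly luciferase from an E(spl)m3 reporter with active Notch, plus control-promoter and uninduced reporter wells for normalisation; unnormalised counts, duplicate wells a and b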
# Reading the numbers: induced reporter light, run 1, well a and induced reporter light, run 1, well b: higher = more light from the Notch target reporter with active Notch; control promoter light, run 1, well a and control promoter light, run 1, well b: higher = more light from the viral control promoter (cell number, transfection, viability); uninduced reporter light, run 1, well a: higher = more light from the Notch target reporter without active Notch
# Active means: 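Wells with low control signal or poorly matching duplicates excluded; duplicates averaged; per source plate, z beyond ±2 for induced/control log2 ratio or beyond ±1.8 for induced/uninduced marks a hit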
# Calls: active = modifier hit (raised or lowered Notch signal); inactive = not a hit
# The screen tested about 22,000 reagents; below is an unselected part of those that have a named target and a result. In the full data, 403 (1.9%) were called active. 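Unnormalised raw counts per well; ratio z-scores behind the hit calls and whether each hit raises or lowers signal are not deposited.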 Names joined by + are all predicted targets of the reagent. No sequences are given here. Not stated in the record: the amount of reagent.
gene knocked down,amplicon,"induced reporter light, run 1, well a","induced reporter light, run 1, well b","control promoter light, run 1, well a","control promoter light, run 1, well b","uninduced reporter light, run 1, well a",Outcome
CG5302 (retired record),DRSC15764,2.41e5,2.27e5,2.29e5,2.15e5,17370,inactive
CG5302 (retired record),DRSC15765,1.92e5,2.47e5,1.81e5,2.16e5,15930,inactive
trp,DRSC17088,2.03e5,1.85e5,2.56e5,2.22e5,15915,inactive
Trf4-1,DRSC17775,1.49e5,1.45e5,2.56e5,2.63e5,11405,inactive
CG7322,DRSC20036,1.16e5,1.08e5,1.11e5,1.25e5,9480,inactive
mts,DRSC03574,12420,11010,13645,14310,645,inactive
CG31705,DRSC01991,2.39e5,1.64e5,1.68e5,1.86e5,15275,inactive
CG34300,DRSC13977,1.85e5,1.75e5,2.00e5,1.88e5,15230,inactive
CG11474,DRSC04112,2.37e5,2.07e5,1.73e5,1.89e5,15850,inactive
RpL17,DRSC18293,10030,9135,15230,15275,765,inactive
thoc5,DRSC04327,1.09e5,93430,68985,64455,6375,inactive
Nup205,DRSC19432,65835,85815,44925,23985,4420,inactive
Polr2M,DRSC15513,2.65e5,1.86e5,2.41e5,2.36e5,15600,inactive

A portion from the list above:
gene knocked down,amplicon,"induced reporter light, run 1, well a","induced reporter light, run 1, well b","control promoter light, run 1, well a","control promoter light, run 1, well b","uninduced reporter light, run 1, well a",Outcome
CG5302 (retired record),DRSC15764,2.41e5,2.27e5,2.29e5,2.15e5,17370,inactive
CG5302 (retired record),DRSC15765,1.92e5,2.47e5,1.81e5,2.16e5,15930,inactive
trp,DRSC17088,2.03e5,1.85e5,2.56e5,2.22e5,15915,inactive

More entries:
gene knocked down,amplicon,"induced reporter light, run 1, well a","induced reporter light, run 1, well b","control promoter light, run 1, well a","control promoter light, run 1, well b","uninduced reporter light, run 1, well a",Outcome
CG9254,DRSC01969,1.55e5,1.70e5,1.49e5,1.63e5,13305,inactive
CG31933,DRSC00457,1.22e5,1.26e5,1.10e5,78810,9565,inactive
CG13634,DRSC14635,1.39e5,2.19e5,1.97e5,1.56e5,14115,inactive
Art1,DRSC16063,1.61e5,1.15e5,1.02e5,1.05e5,12770,inactive
RpS3A,DRSC17168,3455,3032,5395,6620,245,inactive
CG30487,DRSC05377,1.83e5,2.15e5,2.99e5,3.41e5,21028,inactive
parvin,DRSC19468,90495,99675,1.26e5,1.46e5,12140,inactive
TrissinR,DRSC02334,1.36e5,1.17e5,1.92e5,1.99e5,9425,inactive
TrissinR,DRSC02335,99675,92860,1.42e5,1.55e5,8120,inactive
TrissinR,DRSC02336,1.86e5,1.47e5,1.74e5,1.49e5,10595,inactive
Psa,DRSC08152,91320,88645,1.96e5,1.75e5,7790,inactive
CG14062,DRSC14725,1.18e5,1.14e5,1.48e5,1.34e5,10550,inactive
CG8138,DRSC16386,2.06e5,2.29e5,1.98e5,2.08e5,15065,inactive
CG8135 + BBIP1,DRSC12739,1.19e5,1.40e5,1.11e5,1.02e5,8600,inactive
CG8135 + BBIP1,DRSC16384,71545,84245,79615,49460,4410,inactive
mle,DRSC04921,1.85e5,1.66e5,2.00e5,1.82e5,12792,inactive
Uros1,DRSC18191,1.98e5,1.68e5,2.17e5,1.97e5,11442,inactive
CG3021,DRSC18165,98560,93420,1.66e5,1.56e5,7360,inactive
CG3021,DRSC18652,1.25e5,1.14e5,2.49e5,2.30e5,9235,inactive
RhoGAP102A,DRSC17110,60715,86615,86245,93770,6990,inactive
RhoGAP102A,DRSC17145,1.06e5,99390,1.90e5,3.47e5,9740,inactive
